Target: T1, GABAA receptor-Cl- channel complex composed of rat α1, β2, γ2 subunits (Rattus norvegicus, UniProt P18508+P62813+P63138)
T1 construct: expressed in transfected cells
Assay: whole-cell patch clamp of GABA-mediated Cl- currents in transfected HEK 293 cells
Format: cell-based
Conditions: cell line 2C-1C, HEK 293, holding potential -60 mV

Amino acid sequences for entries named in this document (tags omitted). Residues count along the entry.
UniProt P18508, 39-466: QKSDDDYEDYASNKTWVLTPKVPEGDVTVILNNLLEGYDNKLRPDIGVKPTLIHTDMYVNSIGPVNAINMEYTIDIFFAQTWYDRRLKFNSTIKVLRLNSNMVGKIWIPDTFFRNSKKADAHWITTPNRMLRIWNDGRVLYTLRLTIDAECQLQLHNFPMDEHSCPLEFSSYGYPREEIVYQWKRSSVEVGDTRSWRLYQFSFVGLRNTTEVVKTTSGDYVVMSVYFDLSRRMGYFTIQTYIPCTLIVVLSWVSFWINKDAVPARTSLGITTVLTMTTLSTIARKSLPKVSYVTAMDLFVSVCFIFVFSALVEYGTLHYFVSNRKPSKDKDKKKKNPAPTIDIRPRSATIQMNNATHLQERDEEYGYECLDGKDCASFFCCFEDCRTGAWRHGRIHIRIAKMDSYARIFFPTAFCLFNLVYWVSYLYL
UniProt P62813, 28-455: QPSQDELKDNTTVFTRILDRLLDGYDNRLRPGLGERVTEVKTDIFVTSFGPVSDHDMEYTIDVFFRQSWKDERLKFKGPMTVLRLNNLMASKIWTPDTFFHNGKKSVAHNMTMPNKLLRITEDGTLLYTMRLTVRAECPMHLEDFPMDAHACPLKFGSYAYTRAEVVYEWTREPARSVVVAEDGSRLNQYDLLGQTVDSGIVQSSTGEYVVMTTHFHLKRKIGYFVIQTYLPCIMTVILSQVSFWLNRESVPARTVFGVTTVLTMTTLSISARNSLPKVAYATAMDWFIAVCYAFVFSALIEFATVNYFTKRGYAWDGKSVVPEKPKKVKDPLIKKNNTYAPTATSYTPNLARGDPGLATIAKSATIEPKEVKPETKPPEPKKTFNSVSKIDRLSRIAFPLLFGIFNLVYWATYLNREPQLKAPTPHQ
UniProt P63138, 26-474: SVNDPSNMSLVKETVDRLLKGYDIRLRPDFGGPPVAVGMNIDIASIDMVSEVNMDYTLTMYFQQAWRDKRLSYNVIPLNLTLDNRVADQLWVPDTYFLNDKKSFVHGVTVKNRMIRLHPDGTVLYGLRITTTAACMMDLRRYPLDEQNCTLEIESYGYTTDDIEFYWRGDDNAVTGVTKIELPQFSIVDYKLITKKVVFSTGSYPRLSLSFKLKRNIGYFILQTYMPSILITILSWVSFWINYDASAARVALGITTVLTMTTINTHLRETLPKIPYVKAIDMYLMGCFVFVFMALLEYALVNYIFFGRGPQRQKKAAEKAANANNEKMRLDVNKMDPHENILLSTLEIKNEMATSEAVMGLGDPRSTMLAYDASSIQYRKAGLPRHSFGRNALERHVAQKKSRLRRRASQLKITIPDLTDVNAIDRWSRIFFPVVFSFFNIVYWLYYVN

CN1C(=O)CN=C(c2ccccc2)c2cc(Cl)ccc21 [Diazepam]
response of cells to drug (Cl- current): responsive

From US5166066A (priority 1991, dated 1992)
